# Experimental data taken from patent US20080280937A1 (priority 2005, published 2008).
# Some peptides are written in HELM: one residue between dots, names in brackets for other building blocks, links after the first $.
# Assay: general procedure: Fmoc solid-phase peptide synthesis; Fmoc-AA-Wang resin (Wang is a 2-chlorotrityl-Resin); PyBOP, DIPEA
# Details: conjugation step
Substance,conjugation yield [% yield],final HPLC purity (HPLC) [% pure]
"PEPTIDE1{[Pte].[gGlu].D.R.D.D.C}|CHEM1{[DAVLBH_CO2EtS]}$PEPTIDE1,CHEM1,7:R3-1:R1$$$V2.0",70,–
"PEPTIDE1{[Pte].[D-gGlu].[dD].[dR].[dD].[Asp_open].[dC]}|CHEM1{[DAVLBH_CO2EtS]}$PEPTIDE1,CHEM1,7:R3-1:R1$$$V2.0",–,98
